Test results from article PMC6525164.
These are yes or no findings as the source states them, for the method shown. Binding seen in cells or lysates may run through a third protein. Some entries that bind do so weakly or less than the wild type.

Chains of the proteins cited; added tags and fusions are not shown.
UniProt P35222: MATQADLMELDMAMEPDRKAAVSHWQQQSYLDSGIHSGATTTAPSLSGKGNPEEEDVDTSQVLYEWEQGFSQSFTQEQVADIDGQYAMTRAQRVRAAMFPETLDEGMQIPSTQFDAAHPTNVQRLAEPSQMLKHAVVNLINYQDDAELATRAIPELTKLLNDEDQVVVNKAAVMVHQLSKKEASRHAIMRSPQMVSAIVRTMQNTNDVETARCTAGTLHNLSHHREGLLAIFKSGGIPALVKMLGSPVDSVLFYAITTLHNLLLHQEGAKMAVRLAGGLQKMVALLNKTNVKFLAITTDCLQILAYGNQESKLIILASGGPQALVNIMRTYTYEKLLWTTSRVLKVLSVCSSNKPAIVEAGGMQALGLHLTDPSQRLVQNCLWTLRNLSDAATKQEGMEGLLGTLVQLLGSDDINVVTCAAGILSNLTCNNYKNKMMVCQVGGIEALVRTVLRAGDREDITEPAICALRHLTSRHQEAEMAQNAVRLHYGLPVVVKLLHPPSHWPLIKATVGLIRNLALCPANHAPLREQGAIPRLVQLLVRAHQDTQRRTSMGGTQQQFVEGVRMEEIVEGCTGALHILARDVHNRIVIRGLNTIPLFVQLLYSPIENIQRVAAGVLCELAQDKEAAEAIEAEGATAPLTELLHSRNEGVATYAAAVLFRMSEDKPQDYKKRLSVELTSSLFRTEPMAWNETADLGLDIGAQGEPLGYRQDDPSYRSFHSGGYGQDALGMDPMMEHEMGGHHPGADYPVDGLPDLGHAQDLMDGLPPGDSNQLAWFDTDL
UniProt P46940: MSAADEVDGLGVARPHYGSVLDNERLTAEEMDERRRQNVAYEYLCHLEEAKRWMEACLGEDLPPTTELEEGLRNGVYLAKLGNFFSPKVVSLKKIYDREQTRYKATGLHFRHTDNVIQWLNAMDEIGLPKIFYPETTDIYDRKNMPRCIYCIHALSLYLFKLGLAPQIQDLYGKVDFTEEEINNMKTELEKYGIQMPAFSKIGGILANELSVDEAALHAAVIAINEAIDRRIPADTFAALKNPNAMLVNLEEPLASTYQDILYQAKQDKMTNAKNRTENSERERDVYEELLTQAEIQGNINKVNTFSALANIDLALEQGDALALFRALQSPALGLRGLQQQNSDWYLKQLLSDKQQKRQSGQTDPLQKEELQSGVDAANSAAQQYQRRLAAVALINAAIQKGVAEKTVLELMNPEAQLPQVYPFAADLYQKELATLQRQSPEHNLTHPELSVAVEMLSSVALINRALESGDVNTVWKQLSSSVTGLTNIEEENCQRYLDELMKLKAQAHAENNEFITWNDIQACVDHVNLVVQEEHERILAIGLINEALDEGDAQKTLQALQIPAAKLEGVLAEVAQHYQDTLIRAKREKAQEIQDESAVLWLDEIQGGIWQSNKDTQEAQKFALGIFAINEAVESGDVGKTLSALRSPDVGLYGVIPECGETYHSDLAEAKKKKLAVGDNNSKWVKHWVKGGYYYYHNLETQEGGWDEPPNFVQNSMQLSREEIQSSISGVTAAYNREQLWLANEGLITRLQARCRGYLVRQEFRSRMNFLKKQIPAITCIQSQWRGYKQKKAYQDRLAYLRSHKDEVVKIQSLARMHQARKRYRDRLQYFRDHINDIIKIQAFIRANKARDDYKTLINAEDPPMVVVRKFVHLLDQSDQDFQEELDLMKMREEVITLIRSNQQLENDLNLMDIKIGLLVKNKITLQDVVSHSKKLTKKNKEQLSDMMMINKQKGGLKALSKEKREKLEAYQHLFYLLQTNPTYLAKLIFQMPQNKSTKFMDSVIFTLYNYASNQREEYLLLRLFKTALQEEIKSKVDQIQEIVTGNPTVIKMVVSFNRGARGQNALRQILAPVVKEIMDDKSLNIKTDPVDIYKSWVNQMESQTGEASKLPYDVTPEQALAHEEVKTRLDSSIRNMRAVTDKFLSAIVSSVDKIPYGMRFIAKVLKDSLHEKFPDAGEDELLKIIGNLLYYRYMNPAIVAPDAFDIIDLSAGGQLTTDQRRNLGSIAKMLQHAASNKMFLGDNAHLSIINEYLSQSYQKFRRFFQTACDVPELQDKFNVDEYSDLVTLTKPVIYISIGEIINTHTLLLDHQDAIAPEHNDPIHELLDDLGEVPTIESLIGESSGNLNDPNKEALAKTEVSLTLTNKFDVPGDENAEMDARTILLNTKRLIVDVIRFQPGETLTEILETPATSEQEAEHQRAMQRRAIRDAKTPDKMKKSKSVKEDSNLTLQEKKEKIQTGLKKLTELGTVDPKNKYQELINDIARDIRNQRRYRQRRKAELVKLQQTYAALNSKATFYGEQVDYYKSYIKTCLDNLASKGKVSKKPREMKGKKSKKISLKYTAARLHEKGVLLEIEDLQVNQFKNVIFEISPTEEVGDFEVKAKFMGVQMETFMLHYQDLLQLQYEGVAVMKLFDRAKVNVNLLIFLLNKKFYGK

Biological target: β-catenin (human (endogenous in SW1990, CFPAC-1)) (UniProt P35222)
Experiment: co-IP; endogenous proteins in non-transfected HEK293T, SW1990 and CFPAC-1 cells; for DVL2 with β-catenin also SW1990 and CFPAC-1 cells with knock-down of IQGAP1 (interaction reduced); which protein was precipitated is not given

With “IQ motif-containing GTPase-activating protein 1 (from UniProt P46940 1-1657)” the binding was “binds”.
